The source of these data is patent US20130317087A1 (UNIVERSITY OF ROCHESTER, published 2013).

For assay [1], the target named is hSTAU1 SSM-‘RBD’5(E424H, D427V) (human) (UniProt O95793). The experiment in a line: gel-filtration chromatography.
For assay [2], the target named is T1, cellular hUPF1 (human, UniProt Q92900-2 1-1118, limits assumed).
T1 construct: Endogenous protein detected by western blotting
T1 sequence (looked up): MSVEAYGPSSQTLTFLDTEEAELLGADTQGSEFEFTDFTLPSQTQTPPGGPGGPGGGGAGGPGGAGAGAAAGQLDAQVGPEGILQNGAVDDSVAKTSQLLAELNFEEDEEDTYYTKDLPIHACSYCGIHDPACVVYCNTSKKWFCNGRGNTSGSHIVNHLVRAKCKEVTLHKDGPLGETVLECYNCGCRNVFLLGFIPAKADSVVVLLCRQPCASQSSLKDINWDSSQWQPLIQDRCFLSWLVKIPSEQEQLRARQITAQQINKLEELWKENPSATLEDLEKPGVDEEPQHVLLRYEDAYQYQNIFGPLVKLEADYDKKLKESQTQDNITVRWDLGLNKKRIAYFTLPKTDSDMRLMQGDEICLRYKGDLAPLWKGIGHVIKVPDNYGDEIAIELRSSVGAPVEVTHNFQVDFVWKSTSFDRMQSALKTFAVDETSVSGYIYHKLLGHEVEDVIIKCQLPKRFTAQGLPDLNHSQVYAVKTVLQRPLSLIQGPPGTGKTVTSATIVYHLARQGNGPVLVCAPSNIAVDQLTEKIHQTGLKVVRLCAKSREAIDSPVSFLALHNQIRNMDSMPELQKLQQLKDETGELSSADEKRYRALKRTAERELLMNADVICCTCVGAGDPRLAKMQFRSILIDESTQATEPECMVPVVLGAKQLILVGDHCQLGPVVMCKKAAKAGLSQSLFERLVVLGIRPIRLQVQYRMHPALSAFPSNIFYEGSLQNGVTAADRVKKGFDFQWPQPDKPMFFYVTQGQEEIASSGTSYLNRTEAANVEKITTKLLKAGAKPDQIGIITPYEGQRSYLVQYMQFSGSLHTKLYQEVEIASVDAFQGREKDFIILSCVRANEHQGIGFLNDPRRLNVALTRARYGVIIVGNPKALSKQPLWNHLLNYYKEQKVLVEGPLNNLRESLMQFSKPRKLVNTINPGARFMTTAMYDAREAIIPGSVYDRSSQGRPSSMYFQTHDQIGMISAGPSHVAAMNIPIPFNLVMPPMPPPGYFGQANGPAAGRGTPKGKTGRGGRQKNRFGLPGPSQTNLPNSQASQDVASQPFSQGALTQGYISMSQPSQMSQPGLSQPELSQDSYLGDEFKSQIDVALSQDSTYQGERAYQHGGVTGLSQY
The assay is described as follows: anti-HA co-IP from HEK293T lysates.

The target of another assay is T2, mRFP-‘RBD’5 (human, UniProt O95793-2 407-476).
T2 construct: domain: ‘RBD’5; also called monomeric red fluorescence protein-‘RBD’5; product of pmRFP-hSTAU1-‘RBD’5; not shown: N-terminal mRFP (monomeric DsRed derived from pDsRed-Express-C1) with vector linker
T2 sequence (looked up): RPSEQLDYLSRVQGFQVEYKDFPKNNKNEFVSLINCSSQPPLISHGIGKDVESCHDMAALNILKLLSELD
The experiment in a line: anti-GFP co-IP from HEK293T lysates with RNase A, western blotting.

Assay [3] deals with endogenous hSTAU1 isoforms (human) (UniProt O95793). The description is as above.
Assay [4] has as its target hSTAU1 SSM-‘RBD’5 (hSTAU1^55 amino acids 367-476, GST tag removed) (human). The assay is described as follows: X-ray crystal structure of SSM-‘RBD’5.
For assay [5] the target is unchanged. The experiment in a line: gel filtration of the E. coli-made protein.
For assay [6] the target is unchanged. The assay is described as follows: sedimentation velocity analytical ultracentrifugation (self-association, monomer-dimer equilibrium).
Assay [7] shares this target. The assay is described as follows: analytical ultracentrifugation (figure legend).
The target in a further assay is T3, mRFP-SSM-‘RBD’5 (human).
T3 sequence (chain, by the resolver, N-terminal mRFP fusion is not carried in the letters.): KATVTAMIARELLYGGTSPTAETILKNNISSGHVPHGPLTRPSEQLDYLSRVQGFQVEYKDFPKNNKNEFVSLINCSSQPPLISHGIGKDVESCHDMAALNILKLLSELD
The assay is described as follows: anti-GFP co-IP from HEK293T lysates with RNase A, western blotting.

Assay [8] addresses T4, cellular hSTAU2 isoforms (human) (UniProt Q9NUL3).
T4 sequence (looked up): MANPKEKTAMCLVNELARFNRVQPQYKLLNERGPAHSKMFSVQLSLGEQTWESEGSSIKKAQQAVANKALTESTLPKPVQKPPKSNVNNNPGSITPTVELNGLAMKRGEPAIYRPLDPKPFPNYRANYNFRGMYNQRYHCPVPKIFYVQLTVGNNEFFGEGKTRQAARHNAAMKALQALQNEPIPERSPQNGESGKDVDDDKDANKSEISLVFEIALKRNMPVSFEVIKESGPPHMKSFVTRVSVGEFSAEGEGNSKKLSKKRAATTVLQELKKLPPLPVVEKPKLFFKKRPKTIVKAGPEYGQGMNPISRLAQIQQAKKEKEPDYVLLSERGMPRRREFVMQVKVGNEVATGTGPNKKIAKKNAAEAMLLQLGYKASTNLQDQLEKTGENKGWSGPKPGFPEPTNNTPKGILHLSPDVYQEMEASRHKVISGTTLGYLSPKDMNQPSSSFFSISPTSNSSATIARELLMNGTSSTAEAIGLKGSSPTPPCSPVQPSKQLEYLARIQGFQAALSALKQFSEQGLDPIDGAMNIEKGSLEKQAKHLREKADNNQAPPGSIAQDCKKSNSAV
The assay is described as follows: anti-FLAG co-IP from HEK293T lysates with RNase A.

For assay [9], the target named is T1, cellular hUPF1. The assay is described as follows: anti-FLAG co-IP from HEK293T lysates with RNase A.

Results are given in words; binding and its absence hold for the method and conditions named. For some assays here: In cells and extracts the contact can be indirect. Some entries that bind do so weakly or less than the wild type. For some assays here: Where a sequence is shown, tags or fusion partners need not be part of it.

As for “hSTAU1 SSM-‘RBD’5(E424H, D427V) (from UniProt O95793 367-476)”, in [1], the binding result is “binds”.

Consider “hSTAU1^55-HA3 (from UniProt O95793 1-496)”, for which the binding result in the assay with cellular hUPF1 [2] is “binds”.

B1: EGFP-SSM-‘RBD’5 (other, human, UniProt O95793-2 367-476, looked up)
chain: T3 sequence (chain, by the resolver, N-terminal mRFP fusion is not carried in the letters.)
notes: range 367-476; Expressed in HEK293T cells; tested in lysates with RNase A; also called monomeric enhanced green fluorescence protein-SSM-‘RBD’5; product of pEGFP-hSTAU1-SSM-‘RBD’5; not shown: N-terminal monomeric EGFP from pEGFP-C3 (BD Biosciences Clontech) with vector linker
B1: the binding result (with mRFP-‘RBD’5; in assay [3]) was “binds” throughout.

B2: hSTAU1 SSM-‘RBD’5 (hSTAU1^55 amino acids 367-476, GST tag removed) (other)
chain: GPLGSKATVTAMIARELLYGGTSPTAETILKNNISSGHVPHGPLTRPSEQLDYLSRVQGFQVEYKDFPKNNKNEFVSLINCSSQPPLISHGIGKDVESCHDMAALNILKLLSELD
notes: Made in E. coli as a GST fusion from pGEX-6p-1, GST cleaved off; In monomer-dimer equilibrium; also called SSM-‘RBD’5(WT); hSTAU1^55(367-476)
Turning to B2, the binding result in assay [4], in [5], in assay [6] and in assay [7] was “binds” in each case.

B3: EGFP-‘RBD’5 (other, human, UniProt O95793-2 407-476, looked up)
chain: T2 sequence (looked up)
notes: domain: ‘RBD’5; also called monomeric enhanced green fluorescence protein-‘RBD’5; product of pEGFP-hSTAU1-‘RBD’5; not shown: N-terminal monomeric EGFP from pEGFP-C3 with vector linker
For B3, the binding entry (with mRFP-SSM-‘RBD’5 (human); in assay [3]) was “binds” in each case.

B4: hSTAU1^55(R)-FLAG (other, human, UniProt O95793-2 1-496, looked up, not shown: small tags and cut ends)
chain: MKLGKKPMYKPVDPYSRMQSTYNYNMRGGAYPPRYFYPFPVPPLLYQVELSVGGQQFNGKGKTRQAAKHDAAAKALRILQNEPLPERLEVNGRESEEENLNKSEISQVFEIALKRNLPVNFEVARESGPPHMKNFVTKVSVGEFVGEGEGKSKKISKKNAAIAVLEELKKLPPLPAVERVKPRIKKKTKPIVKPQTSPEYGQGINPISRLAQIQQAKKEKEPEYTLLTERGLPRRREFVMQVKVGNHTAEGTGTNKKVAKRNAAENMLEILGFKVPQAQPTKPALKSEEKTPIKKPGDGRKVTFFEPGSGDENGTSNKEDEFKMPYLSHQQLPAGILPMVPEVAQAVGVSQGHHTKDFTRAAPNPAKATVTAMIARELLYGGTSPTAETILKNNISSGHVPHGPLTRPSEQLDYLSRVQGFQVEYKDFPKNNKNEFVSLINCSSQPPLISHGIGKDVESCHDMAALNILKLLSELDQQSTEMPRTGNGPMSVCGRC
notes: Expressed in HEK293T cells at the level of cellular hSTAU1; also called product of pcI-neo-hSTAU1^55(R)-FLAG
For B4, the binding result (in assay [8]; with cellular hUPF1 [9]) was “binds” throughout.

B5: hSTAU1^55(R)Δ(C-Term)-FLAG (other, human, UniProt O95793-2 1-422, looked up, not shown: small tags and cut ends)
chain: MKLGKKPMYKPVDPYSRMQSTYNYNMRGGAYPPRYFYPFPVPPLLYQVELSVGGQQFNGKGKTRQAAKHDAAAKALRILQNEPLPERLEVNGRESEEENLNKSEISQVFEIALKRNLPVNFEVARESGPPHMKNFVTKVSVGEFVGEGEGKSKKISKKNAAIAVLEELKKLPPLPAVERVKPRIKKKTKPIVKPQTSPEYGQGINPISRLAQIQQAKKEKEPEYTLLTERGLPRRREFVMQVKVGNHTAEGTGTNKKVAKRNAAENMLEILGFKVPQAQPTKPALKSEEKTPIKKPGDGRKVTFFEPGSGDENGTSNKEDEFKMPYLSHQQLPAGILPMVPEVAQAVGVSQGHHTKDFTRAAPNPAKATVTAMIARELLYGGTSPTAETILKNNISSGHVPHGPLTRPSEQLDYLSRVQGFQ
notes: domain: lacks all amino acids C-terminal to ‘RBD’5 α1; End at residue 422 is read from the primer; also called product of pcI-neo-hSTAU1^55(R)Δ(C-Term)-FLAG
For B5, the binding entry (in [8]; with cellular hUPF1 [9]) was “binds” each time.
